Experimental data published in paper PMC6803390.
These are yes or no findings as the source states them, for the method shown. Binding seen in cells or lysates may run through a third protein. A yes stands for co-enrichment or nearness to the bait. Other partners may have been found.

By UniProt entry, the sequences of proteins in these tests, tags left out.
UniProt Q9QZQ1: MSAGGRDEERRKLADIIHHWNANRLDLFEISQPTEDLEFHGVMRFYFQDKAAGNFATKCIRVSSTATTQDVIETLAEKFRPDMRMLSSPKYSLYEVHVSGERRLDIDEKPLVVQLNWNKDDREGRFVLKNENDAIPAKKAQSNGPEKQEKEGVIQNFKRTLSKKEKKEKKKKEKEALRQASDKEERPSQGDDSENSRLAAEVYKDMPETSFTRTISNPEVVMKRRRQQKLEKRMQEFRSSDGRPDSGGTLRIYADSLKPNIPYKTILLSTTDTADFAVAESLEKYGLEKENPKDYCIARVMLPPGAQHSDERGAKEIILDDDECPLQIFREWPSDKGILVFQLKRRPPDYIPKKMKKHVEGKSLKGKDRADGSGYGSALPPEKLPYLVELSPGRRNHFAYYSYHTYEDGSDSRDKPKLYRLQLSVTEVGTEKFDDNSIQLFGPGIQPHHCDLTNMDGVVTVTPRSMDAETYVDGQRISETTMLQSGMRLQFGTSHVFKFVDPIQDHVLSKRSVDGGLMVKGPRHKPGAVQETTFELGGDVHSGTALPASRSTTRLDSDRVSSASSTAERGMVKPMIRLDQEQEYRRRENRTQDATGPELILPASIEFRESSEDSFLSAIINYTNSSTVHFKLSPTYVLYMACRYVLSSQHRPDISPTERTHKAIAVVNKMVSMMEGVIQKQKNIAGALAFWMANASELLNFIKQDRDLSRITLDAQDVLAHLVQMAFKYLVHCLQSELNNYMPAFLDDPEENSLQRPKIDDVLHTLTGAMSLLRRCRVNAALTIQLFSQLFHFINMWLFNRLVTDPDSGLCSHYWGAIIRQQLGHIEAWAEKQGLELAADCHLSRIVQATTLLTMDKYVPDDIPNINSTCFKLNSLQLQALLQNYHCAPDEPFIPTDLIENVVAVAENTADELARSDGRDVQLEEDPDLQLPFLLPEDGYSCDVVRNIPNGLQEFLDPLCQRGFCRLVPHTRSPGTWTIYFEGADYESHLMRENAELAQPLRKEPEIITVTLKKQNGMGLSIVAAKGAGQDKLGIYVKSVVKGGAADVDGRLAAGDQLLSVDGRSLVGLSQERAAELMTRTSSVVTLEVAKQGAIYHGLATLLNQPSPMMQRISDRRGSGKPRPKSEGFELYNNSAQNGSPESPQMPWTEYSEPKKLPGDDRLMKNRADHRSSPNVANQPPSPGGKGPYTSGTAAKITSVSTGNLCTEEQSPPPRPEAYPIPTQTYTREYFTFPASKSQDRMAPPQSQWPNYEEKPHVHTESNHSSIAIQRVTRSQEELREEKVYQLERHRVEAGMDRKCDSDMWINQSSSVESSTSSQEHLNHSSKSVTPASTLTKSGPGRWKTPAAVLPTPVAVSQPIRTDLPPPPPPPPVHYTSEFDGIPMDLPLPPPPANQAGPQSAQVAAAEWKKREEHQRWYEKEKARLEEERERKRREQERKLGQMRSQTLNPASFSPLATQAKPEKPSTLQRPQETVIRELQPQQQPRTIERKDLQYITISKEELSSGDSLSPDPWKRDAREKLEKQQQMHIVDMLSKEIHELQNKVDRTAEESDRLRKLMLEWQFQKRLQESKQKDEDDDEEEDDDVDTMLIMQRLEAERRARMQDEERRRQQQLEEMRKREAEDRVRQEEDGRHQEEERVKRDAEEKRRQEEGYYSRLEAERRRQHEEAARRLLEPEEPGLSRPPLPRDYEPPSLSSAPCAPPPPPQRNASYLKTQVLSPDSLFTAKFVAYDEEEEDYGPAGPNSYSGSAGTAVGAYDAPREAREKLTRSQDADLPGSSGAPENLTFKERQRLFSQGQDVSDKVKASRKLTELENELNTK
UniProt A2AQ25: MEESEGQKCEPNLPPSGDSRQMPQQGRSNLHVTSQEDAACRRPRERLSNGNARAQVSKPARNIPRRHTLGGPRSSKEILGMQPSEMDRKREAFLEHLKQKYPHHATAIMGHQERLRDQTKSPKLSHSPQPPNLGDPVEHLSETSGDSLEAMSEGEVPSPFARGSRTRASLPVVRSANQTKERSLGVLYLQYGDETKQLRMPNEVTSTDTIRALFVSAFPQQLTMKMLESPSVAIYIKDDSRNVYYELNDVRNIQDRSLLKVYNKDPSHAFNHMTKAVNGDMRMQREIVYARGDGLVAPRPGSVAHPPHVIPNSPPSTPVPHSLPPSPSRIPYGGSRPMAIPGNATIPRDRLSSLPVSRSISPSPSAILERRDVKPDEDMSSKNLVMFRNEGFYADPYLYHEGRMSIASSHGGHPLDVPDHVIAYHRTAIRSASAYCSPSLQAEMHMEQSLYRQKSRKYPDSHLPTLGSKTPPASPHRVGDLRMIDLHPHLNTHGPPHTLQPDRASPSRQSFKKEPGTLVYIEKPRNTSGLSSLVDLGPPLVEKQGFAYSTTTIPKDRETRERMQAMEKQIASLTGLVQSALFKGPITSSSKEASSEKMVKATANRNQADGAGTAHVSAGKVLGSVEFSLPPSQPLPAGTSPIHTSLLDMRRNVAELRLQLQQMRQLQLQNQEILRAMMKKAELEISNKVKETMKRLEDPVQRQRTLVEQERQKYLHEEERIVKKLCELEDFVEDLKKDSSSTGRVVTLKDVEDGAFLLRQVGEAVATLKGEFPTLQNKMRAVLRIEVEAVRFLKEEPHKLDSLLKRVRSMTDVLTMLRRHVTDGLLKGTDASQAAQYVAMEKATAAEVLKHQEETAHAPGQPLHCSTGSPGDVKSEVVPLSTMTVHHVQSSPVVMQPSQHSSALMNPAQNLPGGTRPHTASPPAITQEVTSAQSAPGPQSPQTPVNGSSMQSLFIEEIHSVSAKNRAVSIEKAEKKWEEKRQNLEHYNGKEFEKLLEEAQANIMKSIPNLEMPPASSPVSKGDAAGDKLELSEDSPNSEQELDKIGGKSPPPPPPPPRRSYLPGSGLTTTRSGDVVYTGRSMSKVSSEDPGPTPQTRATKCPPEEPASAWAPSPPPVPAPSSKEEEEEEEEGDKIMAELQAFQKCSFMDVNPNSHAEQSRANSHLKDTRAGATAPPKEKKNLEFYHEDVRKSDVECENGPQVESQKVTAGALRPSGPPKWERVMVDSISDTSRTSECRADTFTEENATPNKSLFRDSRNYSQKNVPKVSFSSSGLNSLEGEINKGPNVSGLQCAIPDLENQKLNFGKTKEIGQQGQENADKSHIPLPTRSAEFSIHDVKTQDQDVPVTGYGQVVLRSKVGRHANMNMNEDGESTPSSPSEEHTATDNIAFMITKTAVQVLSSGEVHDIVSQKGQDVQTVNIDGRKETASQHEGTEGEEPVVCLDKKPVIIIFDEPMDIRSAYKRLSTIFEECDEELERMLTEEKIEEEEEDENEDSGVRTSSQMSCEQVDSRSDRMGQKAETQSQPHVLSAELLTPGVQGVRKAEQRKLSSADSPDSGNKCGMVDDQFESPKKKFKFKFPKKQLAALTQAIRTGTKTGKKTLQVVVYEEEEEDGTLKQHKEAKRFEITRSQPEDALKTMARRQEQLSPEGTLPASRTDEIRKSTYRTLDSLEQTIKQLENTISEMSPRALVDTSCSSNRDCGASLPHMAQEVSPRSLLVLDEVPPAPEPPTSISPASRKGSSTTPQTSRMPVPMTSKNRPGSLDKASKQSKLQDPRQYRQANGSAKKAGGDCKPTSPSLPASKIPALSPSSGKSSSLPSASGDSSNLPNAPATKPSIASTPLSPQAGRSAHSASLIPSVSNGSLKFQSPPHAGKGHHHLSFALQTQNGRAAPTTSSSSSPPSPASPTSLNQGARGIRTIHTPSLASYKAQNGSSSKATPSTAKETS
UniProt Q99JI6: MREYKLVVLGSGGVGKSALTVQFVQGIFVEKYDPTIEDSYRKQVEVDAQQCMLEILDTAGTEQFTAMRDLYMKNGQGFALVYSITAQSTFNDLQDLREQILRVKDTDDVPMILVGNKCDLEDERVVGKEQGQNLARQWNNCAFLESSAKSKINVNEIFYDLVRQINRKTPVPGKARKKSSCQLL
UniProt Q64331: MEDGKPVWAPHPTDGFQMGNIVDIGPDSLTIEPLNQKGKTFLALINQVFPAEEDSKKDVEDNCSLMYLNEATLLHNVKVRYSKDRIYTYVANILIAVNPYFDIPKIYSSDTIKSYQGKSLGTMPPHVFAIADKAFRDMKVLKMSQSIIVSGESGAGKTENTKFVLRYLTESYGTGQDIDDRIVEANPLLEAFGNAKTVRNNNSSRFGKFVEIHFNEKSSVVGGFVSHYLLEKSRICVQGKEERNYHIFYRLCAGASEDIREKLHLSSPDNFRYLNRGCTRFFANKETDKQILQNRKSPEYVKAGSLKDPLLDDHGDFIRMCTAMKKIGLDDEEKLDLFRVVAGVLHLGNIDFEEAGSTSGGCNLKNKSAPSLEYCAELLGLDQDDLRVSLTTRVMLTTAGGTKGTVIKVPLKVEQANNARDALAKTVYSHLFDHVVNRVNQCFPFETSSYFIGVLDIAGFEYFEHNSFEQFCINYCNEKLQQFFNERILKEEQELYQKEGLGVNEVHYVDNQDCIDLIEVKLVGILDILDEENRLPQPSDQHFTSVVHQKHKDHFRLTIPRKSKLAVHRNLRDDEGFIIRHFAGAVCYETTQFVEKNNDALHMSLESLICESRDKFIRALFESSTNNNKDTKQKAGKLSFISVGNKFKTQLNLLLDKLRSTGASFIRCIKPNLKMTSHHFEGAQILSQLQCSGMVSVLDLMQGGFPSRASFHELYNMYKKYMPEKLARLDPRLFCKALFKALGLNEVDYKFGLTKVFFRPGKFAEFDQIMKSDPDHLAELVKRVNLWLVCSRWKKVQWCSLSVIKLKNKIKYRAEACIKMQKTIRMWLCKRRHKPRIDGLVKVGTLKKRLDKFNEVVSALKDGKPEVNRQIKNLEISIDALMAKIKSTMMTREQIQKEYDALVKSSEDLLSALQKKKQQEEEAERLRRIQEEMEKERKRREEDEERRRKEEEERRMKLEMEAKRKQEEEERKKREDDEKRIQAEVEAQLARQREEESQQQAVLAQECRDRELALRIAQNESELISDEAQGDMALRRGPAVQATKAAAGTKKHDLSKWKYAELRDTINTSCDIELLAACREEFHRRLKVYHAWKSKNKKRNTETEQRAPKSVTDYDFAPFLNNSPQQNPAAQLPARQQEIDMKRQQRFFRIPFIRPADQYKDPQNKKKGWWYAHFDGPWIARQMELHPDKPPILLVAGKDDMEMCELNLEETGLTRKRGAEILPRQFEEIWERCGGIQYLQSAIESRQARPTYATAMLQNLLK
UniProt P83510: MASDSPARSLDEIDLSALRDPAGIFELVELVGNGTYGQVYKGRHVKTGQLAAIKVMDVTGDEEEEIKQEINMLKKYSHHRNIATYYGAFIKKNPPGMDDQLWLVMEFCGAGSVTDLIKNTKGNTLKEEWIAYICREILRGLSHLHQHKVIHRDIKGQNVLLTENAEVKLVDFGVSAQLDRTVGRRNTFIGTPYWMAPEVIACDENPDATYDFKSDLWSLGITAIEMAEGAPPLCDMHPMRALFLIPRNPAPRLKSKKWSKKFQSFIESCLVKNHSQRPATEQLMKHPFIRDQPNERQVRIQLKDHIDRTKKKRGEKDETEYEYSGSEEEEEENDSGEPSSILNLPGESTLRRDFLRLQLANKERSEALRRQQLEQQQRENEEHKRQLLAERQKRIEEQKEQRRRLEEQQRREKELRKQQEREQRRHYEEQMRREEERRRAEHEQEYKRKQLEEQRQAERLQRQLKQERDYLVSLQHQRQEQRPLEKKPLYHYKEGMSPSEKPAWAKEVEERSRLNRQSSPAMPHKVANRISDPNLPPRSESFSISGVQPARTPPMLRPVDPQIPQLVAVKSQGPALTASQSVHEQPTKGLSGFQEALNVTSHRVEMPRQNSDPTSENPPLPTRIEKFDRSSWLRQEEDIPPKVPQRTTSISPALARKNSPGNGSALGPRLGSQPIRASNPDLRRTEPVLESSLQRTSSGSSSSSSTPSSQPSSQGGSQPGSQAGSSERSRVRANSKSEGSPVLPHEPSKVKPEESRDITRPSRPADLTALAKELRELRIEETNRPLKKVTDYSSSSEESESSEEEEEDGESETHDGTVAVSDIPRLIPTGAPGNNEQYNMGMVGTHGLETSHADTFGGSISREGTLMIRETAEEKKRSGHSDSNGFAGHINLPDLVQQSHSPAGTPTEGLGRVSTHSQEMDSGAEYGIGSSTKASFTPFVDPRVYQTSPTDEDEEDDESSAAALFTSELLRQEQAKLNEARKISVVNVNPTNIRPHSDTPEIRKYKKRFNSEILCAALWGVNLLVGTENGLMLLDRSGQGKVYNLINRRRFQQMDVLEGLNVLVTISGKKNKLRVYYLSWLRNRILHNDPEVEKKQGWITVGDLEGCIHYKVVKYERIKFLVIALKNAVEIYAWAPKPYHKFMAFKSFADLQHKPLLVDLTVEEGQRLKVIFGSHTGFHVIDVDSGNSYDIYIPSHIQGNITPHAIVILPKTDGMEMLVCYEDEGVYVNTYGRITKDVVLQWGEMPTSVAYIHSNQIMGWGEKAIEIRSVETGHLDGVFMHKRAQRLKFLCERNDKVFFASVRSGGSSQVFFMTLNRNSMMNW

T1: p140Cap adaptor protein (UniProt Q9QWI6)
T1 sequence: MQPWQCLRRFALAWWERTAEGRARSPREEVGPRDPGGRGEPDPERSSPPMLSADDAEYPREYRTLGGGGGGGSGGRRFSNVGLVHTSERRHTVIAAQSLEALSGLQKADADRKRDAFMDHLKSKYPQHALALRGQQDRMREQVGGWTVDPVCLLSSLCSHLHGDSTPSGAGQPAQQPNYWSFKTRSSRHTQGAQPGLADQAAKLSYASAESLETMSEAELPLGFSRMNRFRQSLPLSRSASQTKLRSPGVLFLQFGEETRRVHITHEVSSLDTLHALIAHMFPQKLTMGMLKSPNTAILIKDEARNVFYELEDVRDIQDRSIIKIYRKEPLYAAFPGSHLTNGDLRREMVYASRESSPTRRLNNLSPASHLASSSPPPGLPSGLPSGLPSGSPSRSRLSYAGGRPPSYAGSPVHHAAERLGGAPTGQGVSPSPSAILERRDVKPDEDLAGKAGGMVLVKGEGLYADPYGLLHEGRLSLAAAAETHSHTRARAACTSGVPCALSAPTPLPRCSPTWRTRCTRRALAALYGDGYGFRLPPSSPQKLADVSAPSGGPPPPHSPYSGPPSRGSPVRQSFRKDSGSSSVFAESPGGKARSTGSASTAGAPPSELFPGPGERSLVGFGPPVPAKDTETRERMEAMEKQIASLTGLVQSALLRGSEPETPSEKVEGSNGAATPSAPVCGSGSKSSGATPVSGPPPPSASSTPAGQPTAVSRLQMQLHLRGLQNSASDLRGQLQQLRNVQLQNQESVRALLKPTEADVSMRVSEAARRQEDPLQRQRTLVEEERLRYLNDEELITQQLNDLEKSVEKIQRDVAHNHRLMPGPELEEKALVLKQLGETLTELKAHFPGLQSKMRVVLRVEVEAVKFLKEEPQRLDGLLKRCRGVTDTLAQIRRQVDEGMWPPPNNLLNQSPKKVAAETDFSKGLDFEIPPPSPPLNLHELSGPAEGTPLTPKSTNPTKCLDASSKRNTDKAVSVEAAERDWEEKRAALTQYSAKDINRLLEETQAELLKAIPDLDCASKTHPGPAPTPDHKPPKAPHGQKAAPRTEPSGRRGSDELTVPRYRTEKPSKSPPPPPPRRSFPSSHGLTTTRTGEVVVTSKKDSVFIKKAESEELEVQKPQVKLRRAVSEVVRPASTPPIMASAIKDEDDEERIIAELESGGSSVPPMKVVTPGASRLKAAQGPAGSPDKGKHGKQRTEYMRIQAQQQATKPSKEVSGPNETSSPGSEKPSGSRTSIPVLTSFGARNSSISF

B1: GTPase-activating protein (GAP) RP2 (protein, UniProt Q9EPK2 1-347)
chain: MGCCFTKRRKSEKAEGEEEQPKLYSWDQREKVDPKDYMFSGLKDETVGRLPGKVAGQQFVIQDCENCNIYIFDHSATITIDDCTNCVIFLGPVKGSVFFRNCRDCKCTLACQQFRVRDCRKLEVFLCCATQPIIESSTNIKFGCFQWYYPELAAQFKDAGLSIFNNIWSHVHDFTPVSGELNWSLLPENAVVQDYVPIPMTEEFKAVRISTEANRSIVPVSRGQRQKYSDESCLVVLFADDYTTANARKLIDEMVGKGFSLVQTKEMSMKTEDAQRVFQEKASDFLLLLNKGPVIALEFNGDDAVQECHLIVNGMFNGTKMFVSEKKETASGDVDSFYNFAEIQMGI
B2: Tectonin beta-propeller repeat-containing protein 1 (protein, UniProt Q80VP0 1-1166)
chain: MPTSVLWAVDLFGRVYTLSTAGQYWELCKDVQLEFKRVSAATQCCWGIAGDNQVYLYVCSSDVPIRHREEAYENQRWNPMGGFCEKLLPSDRWPWSDVSGLQHRPLDGVALPSPHWEWESDWYVDENFGGEPTEKGGWTYAMDFPATYTRDKKWNSCVRRRKWIRYRRYKSRDSWAKIPSKDDPKELPDPFNDLSVGGWEITEEPVGRLSVWAVSLQGKVWYREDVSHPNPEGSSWSLVETPGEVVQISCGPHDLIWATLWEGQALVREGVCRNNPKGSYWSMVEPPGSENGIMHVSAGVSVVWAITKDRKVWFRRGVNSHNPCGTSWIEMVGEMTMVNVGLNDQVWGISCEDRAVYFRQGVTPSELSGKTWKAIVVGRESDRSHSGSSSSLLSAGCFFGDEVRGSGTESAPSDTDASLEVERQGPEQPLPKEALDNSTNLKGSLSKGHETSGNTDHSTENACLTEGKEKAPETSRSDECRGPASTPAELPWTNIDLKEPKKVSNQPAAGFPETAGLSSLGLFPMGMEEPYGADDHPLWAWVSGGACAVEAGSTLKWFTIQSGLSPSVQTLSLSITPAQTAAWRKQIFQQLTERTKRELESFRHYEQAVEQSVWVKTGALQWWCDWKPHKWVDVRVALEQFTGHDGARDSILFIYYVVHEEKKYLHVFLNEVTVLVPVLNEAKHSFALYTPERTRQRWPVRLAAATEQDMNDWLALLSLSCCESRKVHGRPSPQAIWSVTCKGDIFVSEPSPDLEARERLLPCDQMFWRQMGGHLRIIEANSRGVVWGIGYDHTAWVYTGGYGGGCFQGLASSTSNIYTQSDVKSVYIYENQRWNPVTGYTSRGLPTDRFMWSDVTGLQECTKAGTKPPSLQWTWVSDWYVDFSVPGGTDQEGWQYASDFPASYHGYKTMKDFVRRRCWARKCKLVTSGPWLEVAPITLSDVSIIPESAHADGRGHNVALWAVSDKGDVLCRLGVSELNPAGSSWLHVGTDQPFASVSIGACYQVWAVARDGSAFYRGSVSPSQPAGDCWYHIPSPPKQKLTQVSVGQTSVYALDENGNLWYRAGITPSYPQGSSWEHVSNNVRKVSVGPLDQVWVIANKVQGSHGLSRGTVCRRMGVQPREPKGQGWDYGIGGGWDHISVRANATRVPRNMSRDREARGPGPVCC
B3: ADD1 (protein, UniProt Q9QYC0 1-735)
chain: MNGDTRAAVVTSPPPTTAPHKERYFDRVDENNPEYLRERNMAPDLRQDFNMMEQKKRVSMILQSPAFCEELESMIQEQFKKGKNPTGLLALQQIADFMTASVPNVYPAAPQGGMAALNMSLGMVTPVNDLRGSDSIAYDKGEKLLRCKLAAFYRLADLFGWSQLIYNHITTRVNSEQEHFLIVPFGLLYSEVTASSLVKVNLQGDIVDRGSTNLGVNQAGFTLHSAVYAARPDAKCIVHIHTPAGAAVSAMKCGLLPISPEALSLGDVAYHDYHGILVDEEEKILIQKNLGPKSKVLILRNHGLVSVGESVEEAFYYIHNLVVACEIQVRTLASAGGPDNLVLLDPGKYKAKSRSPGTPAGEGSGSPPKWQIGEQEFEALMRMLDNLGYRTGYPYRYPALRERSKKYSDVEVPASVTGHSFASDGDSGTCSPLRHSFQKQQREKTRWLHSGRGDDASEEGQNGSSPKSKTKWTKEDGHRTSTSAVPNLFVPLNTNPKEVQEMRNKIREQNLQDIKTAGPQSQVLCGVMMDRSLVQGELVTASKAIIEKEYQPHVIVSTTGPNPFNTLTDRELEEYRREVERKQKGSEENLDETREQKEKSPPDQSAVPNTPPSTPVKLEEDLPQEPTSRDDSDATTFKPTPPDLSPDEPSEALAFPAVEEEAHASPDPTQPPAEADPEPASAPTPGAEEVASPATEEGSPMDPGSDGSPGKSPSKKKKKFRTPSFLKKSKKKSDS
B4: FLII (protein, UniProt Q9JJ28 1-1271)
chain: MEATGVLPFVRGVDLSGNDFKGGYFPENVKAMTSLRWLKLNRTGLCYLPEELAALQKLEHLSVSHNHLTTLHGELSSLPSLRAIVARANSLKNSGVPDDIFKLDDLSVLDLSHNQLTECPRELENAKNMLVLNLSHNGIDSIPNQLFINLTDLLYLDLSENRLESLPPQMRRLVHLQTLVLNGNPLLHAQLRQLPAMMALQTLHLRNTQRTQSNLPTSLEGLSNLSDVDLSCNDLTRVPECLYTLPSLRRLNLSSNQIAELSLCIDQWVHLETLNLSRNQLTSLPSAICKLTKLKKLYLNSNKLDFDGLPSGIGKLTSLEEFMAANNNLELIPESLCRCPKLKKLVLNKNRLVTLPEAIHFLTEIQVLDVRENPSLVMPPKPADRTAEWYNIDFSLQNQLRLAGASPATVAAAAAVGSGSKDPLARKMRLRRRKDSAQDVQAKQVLKGMSDVAQEKNKNQEESIDARAPGGKVRRWDQGLEKPRLDYSEFFTEDVGQLPGLTIWQIENFVPVLVEEAFHGKFYEADCYIVLKTFLDDSGSLNWEIYYWIGGEATLDKKACSAIHAVNLRNYLGAECRTVREEMGDESEEFLQVFDNDISYIEGGTASGFYTVEDTHYVTRMYRVYGKKNIKLEPVPLKGSSLDPRFVFLLDQGLDIYVWRGAQATLSNTTKARLFAEKINKNERKGKAEITLLVQGQEPPGFWDVLGGEPSEIKNHVPDDFWPPQPKLYKVGLGLGYLELPQINYKLSVEHKKRPKVELMPGMRLLQSLLDTRCVYILDCWSDVFIWLGRKSPRLVRAAALKLGQELCGMLHRPRHTVVSRSLEGTEAQVFKAKFKNWDDVLTVDYTRNAEAVLQGQGLSGKVKRDTEKTDQMKADLTALFLPRQPPMPLAEAEQLMEEWNEDLDGMEGFVLEGRKFTRLPEEEFGHFYTQDCYVFLCRYWVPVEYEEEEKTEDKEGKASAEAREGEEAAAEAEEKQPEEDFQCIVYFWQGREASNMGWLTFTFSLQKKFESLFPGKLEVVRMTQQQENPKFLSHFKRKFIIHRGKRKVTQGTLQPTLYQIRTNGSALCTRCIQINTDSSLLNSEFCFILKVPFESEDNQGIVYAWVGRASDPDEAKLAEDILNTMFDASYSKQVINEGEEPENFFWVGIGAQKPYDDDAEYMKHTRLFRCSNEKGYFAVTEKCSDFCQDDLADDDIMLLDNGQEVYMWVGTQTSQVEIKLSLKACQVYIQHTRSKEHERPRRLRLVRKGNEQRAFTRCFHAWSTFRQAPA

target: T1, p140Cap adaptor protein; assay: affinity purification with mass spectrometry; p140Cap Mab cross-linked to protein G Dynabeads, 9 mg cell extract of p140-TUBO against NeuT-TUBO (mock) cells, lysis buffer 150 mM NaCl, 50 mM Tris pH 7.4, 1% NP-40, 1 mM MgCl2, 5% glycerol, 2 h at 4°C; label-free nanoLC-MS/MS, three experiments

Row | binding | Molecule
1 | binds | HNRNPK (from UniProt P61979 1-463)
2 | binds | CSNK2A1 (from UniProt Q60737 1-391) (enzyme)
3 | binds | HSPA5 (from UniProt P20029 20-655)
4 | binds | Cadherin-1 (from UniProt P09803 157-884)
5 | binds | MLLT4 also known as Afadin (from UniProt Q9QZQ1 1-1820)
6 | binds | CDC42 (from UniProt P60766 1-191)
7 | binds | Sickle tail protein (from UniProt A2AQ25 1-1946)
8 | binds | PPFIA1 alias Liprin (mouse (endogenous in TUBO cells))
9 | binds | DDX3X (from UniProt Q62167 1-662)
10 | binds | Catenin alpha-1 (from UniProt P26231 1-906)
11 | binds | JTJP2 (mouse (endogenous in TUBO cells))
12 | binds | Ras GTPase-activating-like protein IQGap1 (from UniProt Q9JKF1 1-1657)
13 | binds | CAPZA2 (from UniProt P47754 1-286)
14 | binds | SIPA1L1 (from UniProt Q8C0T5 1-1782)
15 | binds | ERBB2IP (ERBIN) (from UniProt Q80TH2 1-1402)
16 | binds | Catenin beta-1 (from UniProt Q02248 1-781)
17 | binds | RANBP9 (from UniProt P69566 1-653)
18 | binds | RAP1B (from UniProt Q99JI6 1-184)
19 | binds | Myosin 6 (from UniProt Q64331 1-1262)
20 | binds | TNIK (from UniProt P83510 1-1323) (enzyme)
21 | binds | Actinin B (mouse (endogenous in TUBO cells))
22 | binds | GRB2 (from UniProt Q60631 1-217)
23 | binds | Flotillin (mouse (endogenous in TUBO cells))

target: T1, p140Cap adaptor protein; assay: as above; remark: another data set of the same source

Row | binding | Molecule
24 | binds | B1
25 | binds | B2
26 | binds | B3
27 | binds | B4
